Tested on: HEK1.7 cells
Assay: Subcellular localization of GFP-fused peptides in HEK1.7 cells (ICC, immunoblot of fractions)
Format: cell-based, human
Conditions: HEK1.7 cell transfection, 48 hours

Substance | nuclear localization (ICC)
NaviPA1mt1: GFP-fused NaviPA1 mutant, alanine substitution for ten serine residues (AAKAAKERRNRRKKKKQKMAAGEEKGDDEKLAKAGAEEAIRKKA; GFP fusion) | observed
NaviPA1mt2: GFP-fused NaviPA1 mutant, alanine substitution for nine arginine or lysine within predicted polybasic NLS (SSKSAKEAANAAAAAAQAMSSGEEKGDDEKLSKSGSEESIRKKS; GFP fusion) | diminished
